For 17 compounds, cell number change and AC50 results are on record in PubChem BioAssay AID2685 (National Center for Advancing Translational Sciences (NCATS), 2010).

A short description of this assay: qHTS Assay for Lipid Storage Modulators in Drosophila S3 Cells.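 As to cell number change: cells counted by Cell Tracker Red CMTPX staining in the red channel.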 The following applies: BODIPY lipid droplet fluorescence, 18-24 h; for cell number change: measured here: cell count max response, cells fed with added oleic acid. In short, it runs like this: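 Drosophila S3 cells got compounds at several concentrations plus oleic acid (400 uM solution). Laser-scanning cytometry with 488 nm excitation read lipid droplets at 500-530 nm and cells at 575-640 nm. Percent activity was relative to 20 uM Triacsin C.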
In general terms: Quantitative high-throughput screening tests each substance at several concentrations.

[1] abbreviates: measured here: lipid fluorescence (Fed channel) AC50, cells fed with added oleic acid.
Where [2] appears, read: measured here: cell number channel AC50, cells fed with added oleic acid.

The list shows a part of the results. The main result of the screen is listed elsewhere. These columns were measured beside it and carry no call. The list favours compounds with an active or inconclusive main result. Words in brackets tell the shape of the fitted curve; partial curves, single points and poor fits give uncertain potencies.

Broadly, the AC50 is the midpoint of the concentration-response curve, whichever way the signal moves. In the case of `COC(=O)C1=C(C)NC(=O)CC1c1cccc(OC)c1OC` (stereo not drawn), the cell number change worked out at 0.723%. Besides, the AC50 under setting [1] is 0.00461 µM [rising, full curve, poor fit].

Regarding `CCN(C(=O)CSc1nnc(C2CC2)n1-c1ccccc1)C1CCS(=O)(=O)C1` (stereo not drawn), the cell number change is -40.3%. Also, the AC50 under setting [2] was 29.1 µM [falling, single point]. The concentration at half-maximal activity (AC50) under setting [1] was 29.1 µM [falling, single point].

Consider `O=S(=O)(c1ccc2ccccc2c1)n1cccn1`, for which the cell number change was found to be 21.5%. The AC50 under setting [1] is 23.1 µM [falling, single point].

As to `COc1ccc2[nH]c3ccc(OC)cc3c2c1`, the cell number change was -31%. Further, under setting [2], the AC50 was 18.4 µM [falling, single point].

In the case of `Cc1ccc(S(=O)(=O)Nn2c(C)nnc2-n2nc(C)cc2C)cc1`, the cell number change is -19.3%. Further, the AC50 under setting [1] was 0.0517 µM [falling, full curve, poor fit].

In the case of `O=C(NCCOC(=O)c1ccccc1)c1ccc([N+](=O)[O-])cc1`, the cell number change was -19.9%. Besides, the AC50 under setting [1] was 0.58 µM [rising, single point].

As to `CCN(CC(=O)Nc1ccc2c(c1)OCCO2)C(=O)C(C)Oc1ccc(Cl)cc1` (stereo not drawn), the cell number change came out at 12%.

Consider `CCCCC(=O)NC(=S)Nc1ccc(NC(=O)C(C)C)c(OC)c1`, for which the cell number change is -27.1%.

For the compound `O=c1cc(-c2ccccc2)c2cc3c(cc2[nH]1)OCCO3`, the cell number change came to 23.7%.

Turning to `O=C(/C=C/c1cccc([N+](=O)[O-])c1)NC(=S)Nc1cccc(NC(=O)c2ccccc2Cl)c1`, the cell number change was -59.2%. Moreover, the AC50 under setting [2] was 32.6 µM [falling, single point].

As for `Cc1ccc(-c2noc(C3CCCCC3)n2)cc1`, the cell number change worked out at 37.4%. The AC50 under setting [2] is 23.1 µM [rising, single point].

For `CCN(CC)CCN1C(=O)C(O)=C(C(=O)c2ccco2)C1c1ccccn1` (stereo not drawn), the cell number change was -52.3%. Also, the AC50 under setting [2] is 29.1 µM [falling, single point]. For the same compound, under setting [1], the AC50 is 5.17 µM [falling, full curve].

With `COc1ccc(/C=C2\SC(=S)N(CCCC(=O)N3CCOCC3)C2=O)cc1OC`, the cell number change stood at 9.46%. Moreover, under setting [1], the AC50 is 23.1 µM [rising, partial curve, poor fit].

Take `Cc1cc(=O)[nH]c(N/N=C/c2cc(C)n(-c3ccccc3)c2C)n1`: the cell number change turned out to be 24.4%. The AC50 under setting [1] is 0.651 µM [falling, full curve, poor fit].

For the compound `COc1ccc(Cl)cc1C(=O)OCC(=O)NC1CCCC(C)C1C` (stereo not drawn), the cell number change is 56.9%. Also, under setting [2], the AC50 is 23.1 µM [rising, single point].

For `O=c1c2ccccc2nc(SCc2ccncc2)n1CC1CCCO1` (stereo not drawn), the cell number change is 15.9%. The AC50 under setting [1] was 1.64 µM [rising, single point].

Consider `CC(NC(=O)c1ccccc1)c1nc2ccccc2n1Cc1ccc(C#N)cc1` (stereo not drawn), for which the cell number change is -19.7%. Also, the AC50 under setting [1] is 0.13 µM [falling, full curve, poor fit].
